The term AC50 denotes the concentration giving half of the maximal activity seen.

The list shows a part of the results. These are further read-outs of the screen, such as a control signal, another cell line or another target. No call is given for them. Compounds called inactive in the main read-out are mostly missing here. Potencies come from curve fits of mixed quality, noted in brackets.

This assay is described as follows: qHTS Assay for Modulators of Lamin A Splicing. Conditions: HeLa LMNA splicing GFP/RFP minigene ratio, 48 h. Summed up: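 Read-out is the ratio of GFP to DsRed2 object intensity, acquired by 488 nm laser-scanning cytometry on HeLa lamin A-EGFP minigene reporter cells. Compound incubation 48 hrs at 37 °C in Opti-MEM with 2% FBS; DMSO 0.5% final.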
[1] abbreviates: measured here: RFP viability control channel.
[2] abbreviates: measured here: GFP splicing reporter channel.

As to `O=C1NCC(COCc2ccccc2)O1` (configuration not stated), the AC50 under setting [1] was 4.47 µM [falling, full curve, poor fit]. Turning to `COCCNC(=O)/C(C#N)=C/c1nc(N(C)C)n(-c2ccc(F)cc2)c1Cl`, the half-maximal activity concentration (AC50) under setting [1] is 35.5 µM [rising, single point]. The same measure, in the same setting: then `COc1cc(/C=N/Nc2cc(C)nc(NS(=O)(=O)c3ccc(C)cc3)n2)ccc1O`, with 7.08 µM [rising, partial curve]. Turning to `COc1ccccc1N1CCN(C(c2ccccc2)c2nnnn2CCc2ccccc2)CC1` (configuration not stated), the AC50 by setting is: under setting [2], 17.8 µM [rising, single point]; under setting [1], 31.6 µM [rising, single point]. For the compound `Cc1[nH]n(-c2ccccc2)c(=O)c1C(c1cccc([N+](=O)[O-])c1)c1c(C)[nH]n(-c2ccccc2)c1=O`, the AC50 under setting [2] is 0.141 µM [falling, partial curve, poor fit]. Same read-out and setting: then `COc1ccc(OC)c(NC(=O)COC(=O)Cc2ccc(Br)cc2)c1`, with 0.355 µM [rising, full curve, poor fit].

Regarding `CC1(C)Oc2ccc3ccc(=O)oc3c2/C(=C/Nc2ccc(O)cc2)C1=O`, the AC50 under setting [2] was 20 µM [falling, single point] and the concentration at half-maximal activity (AC50) under setting [1] is 35.5 µM [falling, single point]. Consider `CN(C1CCCCC1)S(=O)(=O)c1ccc(NC(=S)NC(=O)c2cccs2)cc1`, for which the AC50 under setting [2] was 35.5 µM [rising, single point]. `Cn1c(NCc2cccnc2)nc2c1c(=O)n(Cc1ccccc1F)c(=O)n2C`: the AC50 under setting [1] was 11.2 µM [rising, single point]. On the same count and under the same terms, then `Cc1ccccc1NS(=O)(=O)c1cc(C(=O)Nc2cccc([N+](=O)[O-])c2)ccc1C`, with 17.8 µM [rising, partial curve, poor fit].

With `CCCn1cnc2scc(-c3ccc(C)cc3)c2c1=O`, the AC50 reads like this: under setting [2], 11.2 µM [falling, partial curve, poor fit]; under setting [1], 11.2 µM [falling, partial curve]. As to `CC(C)(C)c1ccc(C(=O)NC(=S)Nc2nc3c(s2)CCCC3)cc1`, the half-maximal activity concentration (AC50) runs as follows: under setting [2], 15.8 µM [rising, partial curve]; under setting [1], 15.8 µM [rising, partial curve]. With `Cc1ncc(CO)c(/C=N/NC(=S)Nc2ccc(F)cc2)c1O`, under setting [1], the AC50 was 35.5 µM [rising, single point]. `N#Cc1ccc(C(=O)Nc2nc(-c3cccs3)c(C(=O)C(F)(F)F)s2)cc1`: the AC50 is 1 µM [rising, single point] under setting [2] and 5.62 µM [rising, partial curve] under setting [1]. For `Cc1cc(C)cc(N(CC(=O)NCc2ccc3c(c2)OCO3)C(=O)CCC(=O)Nc2ccccn2)c1`, the half-maximal activity concentration (AC50) reads like this: under setting [2], 3.55 µM [rising, partial curve, poor fit]; under setting [1], 0.224 µM [rising, full curve, poor fit].

Consider `CCN1C(=O)c2cccc3c(NS(=O)(=O)c4ccc(NC(C)=O)cc4)ccc1c23`, for which the AC50 under setting [1] is 10 µM [rising, partial curve].

For `Cn1cc(Cl)c(-c2n[nH]c(=S)n2-c2ccccc2)n1`, under setting [2], the AC50 is 5.01 µM [rising, single point].

On to `O=C(CC1C(=O)OCC2CCCCN21)Nc1ccccc1C(F)(F)F` (configuration not stated), for which, under setting [1], the AC50 is 3.98 µM [falling, single point]. Same read-out and setting: with `CCOC(=O)c1ccc(-c2ccc(/C=C(\C#N)C(=O)Nc3cccc(C)c3)o2)cc1` the figure was 2.51 µM [falling, single point]; with `Cc1nn(C)cc1NC(=O)c1ccc(Br)o1`, 35.5 µM [rising, single point].

For the compound `Cc1cccc(OCC(=O)N/N=C/c2cn[nH]c2-c2ccc(Cl)c(Cl)c2)c1`, the AC50 is, setting by setting: under setting [2], 35.5 µM [falling, single point]; under setting [1], 35.5 µM [falling, partial curve]. Take `COc1ccc(-n2c(=O)cnc3cnc(N(C)C)nc32)cc1`: under setting [2], the AC50 is 10 µM [falling, partial curve].

Consider `Cc1ccccc1-c1nc(NCc2cccs2)c2ccccc2n1`, for which the half-maximal activity concentration (AC50) is, setting by setting: under setting [2], 12.6 µM [falling, partial curve]; under setting [1], 20 µM [falling, single point]. As for `COc1ccc(-c2cc(-n3c(C(F)(F)F)nc4ccccc43)n(CCC#N)n2)cc1`, the AC50 under setting [2] was 12.6 µM [rising, single point].

In the case of `COc1ccc(C(=O)/C=C/N(C)C)cc1OC`, the half-maximal activity concentration (AC50) was 12.6 µM [rising, single point] under setting [2] and 20 µM [rising, single point] under setting [1].

`COc1ccc(CNC(=O)c2cc(-c3ccccc3OC)on2)cc1`: under setting [1], the concentration at half-maximal activity (AC50) was 35.5 µM [rising, single point]. In the case of `O=C(CSc1nnc(-c2ccccc2Cl)o1)N1CCCCC1`, the AC50 under setting [1] is 10 µM [rising, partial curve].

Turning to `Nc1nc(=S)c2ncn([C@H]3O[C@@H](CO)[C@@H](O)[C@@H]3O)c2[nH]1`, the half-maximal activity concentration (AC50) was 14.1 µM [falling, single point] under setting [2] and 1.12 µM [falling, partial curve, poor fit] under setting [1].

Take `Cc1nc(N)sc1-c1csc(N(C)c2ccc(O)cc2)n1`: the concentration at half-maximal activity (AC50) was 14.1 µM [rising, single point] under setting [2] and 11.2 µM [rising, single point] under setting [1]. For `Cc1cc(Nc2cccc(F)c2)nc(NCc2ccccc2)n1`, the AC50 runs as follows: under setting [2], 17.8 µM [rising, partial curve, poor fit]; under setting [1], 14.1 µM [rising, partial curve]. For the compound `Cc1cccc(OC(C)C(=O)N2CCC(c3nc4ccccc4o3)CC2)c1C` (configuration not stated), the concentration at half-maximal activity (AC50) was 20 µM [falling, partial curve] under setting [2] and 22.4 µM [falling, partial curve, poor fit] under setting [1]. In the case of `O=C1c2ccccc2C(=O)c2c(NCCCN(CCO)CCO)cccc21`, the concentration at half-maximal activity (AC50) under setting [1] is 2.82 µM [rising, partial curve]. As to `Fc1ccccc1CSc1nnnn1-c1ccc2c(c1)OCO2`, the concentration at half-maximal activity (AC50) by setting is: under setting [2], 35.5 µM [rising, single point]; under setting [1], 35.5 µM [rising, single point]. In the case of `O=c1c(-c2ccc(F)cc2)nc2cnc(N3CCNCC3)nc2n1Cc1ccc(F)cc1`, the AC50 was 20 µM [falling, single point] under setting [2] and 22.4 µM [falling, partial curve] under setting [1].

Turning to `COc1ccc(CCNC(=O)CSCc2ccc([N+](=O)[O-])cc2)cc1OC`, the AC50 under setting [1] was 12.6 µM [rising, single point].

In the case of `Cc1oc(-c2ccc(C(=O)N(C)Cc3ccccc3)cc2)nc1CN1CCc2ccccc21`, the half-maximal activity concentration (AC50) under setting [1] is 25.1 µM [rising, single point]. In the case of `Cc1cc(C)nc(NC(=O)c2csnn2)c1`, the AC50 under setting [1] was 0.316 µM [falling, partial curve].

With `CC(=O)/C(C#N)=C1\NC(=O)C(Cc2ccc(C)c(C)c2)S1` (configuration not stated), the AC50 runs as follows: under setting [2], 1.41 µM [rising, full curve]; under setting [1], 3.55 µM [rising, full curve]. As for `O=C(Nc1ccc2c(c1)OCCO2)c1ccc(Cl)c(S(=O)(=O)N2CCOCC2)c1`, the AC50 was 10 µM [rising, partial curve, poor fit] under setting [2] and 12.6 µM [rising, partial curve] under setting [1]. `O=C(O)c1cc2c(ccc3ccccc32)[nH]1`: under setting [1], the AC50 was 14.1 µM [rising, single point]. In the case of `Cc1cccc(N2CCN(C(=O)CCNS(=O)(=O)c3ccc4c(c3)CCN4C(=O)C3CC3)CC2C)c1` (configuration not stated), under setting [2], the AC50 is 28.2 µM [falling, partial curve, poor fit]. For `Cc1cc(SCC(=O)N/N=C/c2cccnc2)nc2c(C)cccc12`, the AC50 under setting [2] was 20 µM [falling, partial curve] and the AC50 under setting [1] is 35.5 µM [falling, single point]. With `O=C(Nc1cccc2ccccc12)N1CCCN(c2c(Cl)cncc2Cl)CC1`, the AC50 under setting [1] is 14.1 µM [falling, partial curve]. In the case of `COc1ccc(NS(=O)(=O)c2ccc(N)cc2)nn1`, the half-maximal activity concentration (AC50) is, setting by setting: under setting [2], 0.00447 µM [falling, full curve, poor fit]; under setting [1], 0.00355 µM [rising, full curve, poor fit]. Consider `c1ccc(CNc2ncnc3[nH]ncc23)cc1`, for which the half-maximal activity concentration (AC50) runs as follows: under setting [2], 0.316 µM [falling, full curve, poor fit]; under setting [1], 0.251 µM [falling, full curve, poor fit]. Consider `COc1cc([N+](=O)[O-])ccc1N/C=C/C(=O)c1cccs1`, for which the half-maximal activity concentration (AC50) is, setting by setting: under setting [2], 1.78 µM [falling, full curve]; under setting [1], 5.62 µM [falling, full curve]. In the case of `Cc1ccc(S(=O)(=O)N(C)CCCC(=O)Nc2ccc(C)cc2C)cc1`, the AC50 under setting [1] is 17.8 µM [rising, partial curve].

With `COc1ccc(/C=N/NC(=O)c2ccoc2C)cc1COc1c(C)cccc1C`, the half-maximal activity concentration (AC50) was 12.6 µM [rising, single point] under setting [2] and 17.8 µM [rising, single point] under setting [1]. In the case of `CCc1nc(Sc2nc(C)cc(C)n2)c2oc3ccccc3c2n1`, under setting [1], the half-maximal activity concentration (AC50) is 11.2 µM [rising, partial curve]. Regarding `CCc1ccccc1NC(=O)N1CC(CC)Oc2ccc(Cl)cc21` (configuration not stated), the AC50 under setting [1] is 14.1 µM [rising, partial curve, poor fit]. Still for that read-out and setting: with `C/C(=N\NC(=O)CNc1cccc(C(F)(F)F)c1)c1cccc(Br)c1` the figure was 0.224 µM [rising, full curve, poor fit]. Turning to `Cc1ccccc1C(=O)OC1OC(=O)C(Cl)=C1N1CCOCC1` (configuration not stated), the half-maximal activity concentration (AC50) under setting [2] was 3.55 µM [falling, single point]. On the same count and under the same terms, with `O=C(N1CCCC1)C(F)(F)Oc1ccc(F)cc1` the figure was 1.78 µM [falling, full curve, poor fit].

Consider `O=C(Nc1nnc(SCc2ccc(F)cc2)s1)C1CC(=O)N(Cc2ccccc2)C1` (configuration not stated), for which the half-maximal activity concentration (AC50) under setting [1] is 20 µM [rising, partial curve]. On the same count and under the same terms, with `CCc1ccc(N2CCN(C(=O)c3ccc(OC)c(OC)c3)CC2)cc1` the figure was 25.1 µM [rising, partial curve].

These data come from PubChem BioAssay AID1487 (National Center for Advancing Translational Sciences (NCATS), 2009).
